Reference: PubChem BioAssay AID504444 (National Center for Advancing Translational Sciences (NCATS), 2011)
The whole screen tested about 360,000 compounds, of which about 7,500 (2.1%) were called active. Inconclusive means that the source gave no clear call. Such entries were picked first, then a sample of the others. Calls follow the shape of the dose curve; as a rule, active = well fitted inhibition curve with a large enough effect; inconclusive = small, poorly fitted or top-dose-only effect, or effect the other way; inactive = flat fitted curve, though single readings scatter. Where the call is inconclusive, the potency comes from a doubtful curve fit.
Potency is read from the fitted curve at half-maximal effect.

Experiment: Nrf2 qHTS screen for inhibitors; also: nearly all actives have a fitted effect of over 60% in size
Details: A549 ARE-Fluc reporter, luciferase luminescence, 18-24 h; series mostly up to 46 µM
How it was run: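 Cells were seeded and rested 2 h, then exposed to compounds for 18-24 h. CellTiter-Fluor was read first as a viability measure. BugLite was added 15 min before the final luminescent read of ARE-luciferase activity in A549 cells.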
With `Cc1ccc(NC(=O)Cn2nc(-c3ccc(F)cc3)c3cnc4ccc(C)cc4c32)cc1` the Potency was inconclusive: 29.1 µM [activator, single point].
In the case of `CCCn1c(SC(C(=O)Nc2cc(C)ccc2OC)c2ccccc2)nc2ccccc2c1=O` (stereo unspecified), the Potency was “inactive”.
For `CSc1cccc(NC(=O)N2CCCC(CNS(=O)(=O)Cc3ccccc3)C2)c1` (stereo unspecified), the Potency was inconclusive: 6.51 µM [activator, partial curve, poor fit].
For `CCOC(=O)c1cn(CC)c2cc3c(cc2c1=O)OCO3`, the Potency was inconclusive: 29.1 µM [falling, single point].
In the case of `COc1cc(C(CCN2CCCCC2)c2c(OC)cc(OC)c3c2OC(=O)CC3c2ccc(N(C)C)cc2)cc(OC)c1OC` (stereo unspecified), the Potency was inconclusive: 0.326 µM [falling, full curve, poor fit].
For `O=C(c1ccccc1)c1cc(Cl)ccc1N1C(=O)C=CC1=O`, the Potency was inconclusive: 16.4 µM [falling, single point].
In the case of `O=C(NCCN1CCOCC1)C(=O)NCC1OCCCN1S(=O)(=O)c1ccc(F)cc1` (stereo unspecified), the Potency was “inactive”.
For `COc1ccc(NS(=O)(=O)c2cc(C(=O)N3CCCCCC3)ccc2C)cc1`, the Potency was inconclusive: 6.51 µM [falling, partial curve, poor fit].
In the case of `Cc1ccc(-c2cc3ccccc3nc2N)cc1`, the Potency was “inactive”.
With `COc1ccccc1CCc1nnc(CCC(=O)NCCCOc2cccnc2)o1` the Potency was inconclusive: 7.31 µM [activator, partial curve, poor fit].
With `O=[N+]([O-])c1ccc2c(c1)C(N1CCOCC1)/C(=C/COc1ccc(Cl)cc1Cl)O2` (stereo unspecified) the Potency was inconclusive: 29.1 µM [falling, single point].
With `Cc1nnc(SCC(=O)NCc2ccco2)n1Cc1ccccc1` the Potency was inconclusive: 13 µM [activator, partial curve, poor fit].
In the case of `CC(=O)/C=C/c1ccccc1Oc1c(F)c(F)nc(F)c1F`, the Potency was “inactive”.
With `Cc1ccc(C)c(S(=O)(=O)C(C#N)c2nc3ccccc3nc2N2CC(C)OC(C)C2)c1` (stereo unspecified) the Potency was active: 13 µM.
In the case of `COc1cccc(-c2ccc3c(N)c(C(=O)NCc4ccc(Cl)cc4)sc3n2)c1`, the Potency was inconclusive: 23.1 µM [falling, single point].
With `Cc1nc(C)c(-c2csc(Nc3ccc(S(N)(=O)=O)cc3)n2)s1` the Potency was inconclusive: 16.4 µM [falling, single point].
For `CC(C)Sc1ncc(Cl)c(C(=O)Nc2nnc(C(C)C)s2)n1`, the Potency was “inactive”.
In the case of `CCc1ccc(NC(=O)Cn2c(=O)oc3cc(S(=O)(=O)N4CCCCCC4)ccc32)cc1`, the Potency was inconclusive: 25.9 µM [falling, single point].
In the case of `Cc1nccn1CCCN1C(=O)OC2(CCCCC2)C1(C)O` (stereo unspecified), the Potency was inconclusive: 29.1 µM [activator, single point].
For `COc1ccc(N2CSC3=C(C#N)C(c4cc(OC)ccc4OC)CC(=O)N3C2)c(OC)c1` (stereo unspecified), the Potency was inconclusive: 7.31 µM [falling, partial curve].
For `CC1=C(C(=O)OC2CCCCC2)C(c2ccc(F)cc2)NC(=O)N1` (stereo unspecified), the Potency was inconclusive: 8.2 µM [falling, partial curve, poor fit].
In the case of `CC(C)(C)OC(=O)N(Cc1ccccc1)Cc1ccccc1OCc1cccc(NC(=O)C2CCC2)c1`, the Potency was inconclusive: 16.4 µM [falling, single point].
With `CCC(CO)Oc1cc(NCc2ccc(C(C)(C)C)cc2)c2ncn(C(C)C)c2c1` (stereo unspecified) the Potency was inconclusive: 32.6 µM [falling, single point].
With `CCOC(=O)N1CCC(N2Cc3cccc(C(=O)NCc4ccc5c(c4)OCO5)c3C2=O)CC1` the Potency was “inactive”.
With `COc1cccc(NC(=S)NCc2ccccc2)c1` the Potency was inconclusive: 32.6 µM [activator, partial curve, poor fit].
For `CCOC(=O)CNC(=O)C1CCCCC1`, the Potency was inconclusive: 4.11 µM [activator, single point].
With `COc1ccccc1C(=O)Nc1nnc(SCC(=O)Nc2ccc3c(c2)oc2ccccc23)s1` the Potency was inconclusive: 2.06 µM [activator, partial curve, poor fit].
For `O=C1NC(c2ccccn2)Nc2sc3c(c21)CCC3` (stereo unspecified), the Potency was inconclusive: 23.1 µM [activator, single point].
For `Nc1ccc(Br)cc1Br`, the Potency was inconclusive: 6.51 µM [activator, single point].
With `CCN(CC)c1nc(SCC(=O)O)nc(N(CC)CC)n1` the Potency was inconclusive: 6.51 µM [activator, single point].
With `CCOC(=O)c1ccc(NC(=O)CSc2nc3c(c(=O)n2C)SC(C)C3)cc1` (stereo unspecified) the Potency was inconclusive: 16.4 µM [falling, single point].
For `COc1cc(/C=N/n2c(-c3ccc4c(c3)NC(=O)CO4)csc2=Nc2cccc(C)c2)ccc1O`, the Potency was inconclusive: 29.1 µM [falling, single point].
For `C/C(=C\[C@@H](NP(=O)(c1ccccc1)c1ccccc1)c1ccccc1)CO[Si](c1ccccc1)(c1ccccc1)C(C)(C)C`, the Potency was inconclusive: 18.4 µM [falling, single point].
In the case of `COc1ccc(S(=O)(=O)NCCCCC(=O)O)cc1C(=O)O`, the Potency was active: 16.4 µM.
For `CCCCOC(=O)c1ccc(NC(=O)C(=O)NCc2ccco2)cc1`, the Potency was inconclusive: 0.82 µM [activator, full curve, poor fit].
For `CC(C)Cn1c(N)c(C(=O)COC(=O)c2ccc(O)cc2)c(=O)n(C)c1=O`, the Potency was “inactive”.
For `O=C(NN=Cc1c(O)ccc2ccccc12)C1CC1`, the Potency was inconclusive: 23.1 µM [falling, partial curve, poor fit].
With `Cn1c(SCc2ccc(Br)cc2)nc2ccccc2c1=O` the Potency was inconclusive: 18.4 µM [falling, single point].
With `CSc1cccc(NC(=O)C2CCCN2S(=O)(=O)c2ccc3c(c2)CCC(=O)N3)c1` (stereo unspecified) the Potency was inconclusive: 29.1 µM [falling, single point].
In the case of `CN(CC(=O)Nc1ccc(Cl)cc1)C(=O)Cn1[nH]c(=O)c2ccccc2c1=O`, the Potency was inconclusive: 0.58 µM [falling, partial curve, poor fit].
For `CCc1nc(N2CCN(C(=S)NCCCOC)CC2)c2c3c(sc2n1)CCCC3`, the Potency was inconclusive: 23.1 µM [falling, single point].
